# Several values for one entry are separate records, joined by “and”; a condition that tells them apart may be missing. Equal values may be shown once. Hit rate of the full screen: of about 400,000 compounds, about 3,700 (0.93%) were called active. The inconclusive results got no clear call from the source; some entries with a clear call stand among them for comparison. The call rests on the fitted dose curve; in most records, active means well fitted inhibition curve with a large enough effect; inconclusive means small, poorly fitted or top-dose-only effect, or another doubt; inactive means no such curve, though single readings can be large or run the other way. Potencies beside an inconclusive call are fits to weak or partial responses and may not hold up. Where a structure was tested more than once in an assay, its records may differ in their call.
# By UniProt entry, the sequences of proteins in these tests, tags left out. Where a name states a change or a piece, a line headed by the entry shows the natural chain unless it says otherwise.
# UniProt P11473: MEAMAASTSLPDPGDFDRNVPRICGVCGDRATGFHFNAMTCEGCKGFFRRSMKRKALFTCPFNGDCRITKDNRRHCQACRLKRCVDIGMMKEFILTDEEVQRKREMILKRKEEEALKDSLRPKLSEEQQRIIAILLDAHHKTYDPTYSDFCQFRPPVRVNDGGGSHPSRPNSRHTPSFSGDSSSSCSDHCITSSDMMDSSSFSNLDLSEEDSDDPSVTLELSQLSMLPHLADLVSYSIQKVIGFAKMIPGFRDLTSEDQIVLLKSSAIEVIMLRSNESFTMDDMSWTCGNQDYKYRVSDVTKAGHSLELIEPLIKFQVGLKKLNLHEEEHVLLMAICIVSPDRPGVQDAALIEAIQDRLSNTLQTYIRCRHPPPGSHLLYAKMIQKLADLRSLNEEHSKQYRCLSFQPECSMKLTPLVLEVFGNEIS
# Target: Vitamin D3 receptor (Homo sapiens) (UniProt P11473)
# Experiment: Inhibitors of the vitamin D receptor (VDR): qHTS
# Settings: VDR-SRC2-3 peptide fluorescence polarization, 2 h; max response, negative = inhibition: stronger effect = lower value
# In short: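 The screen uses fluorescence polarization to detect compounds that interfere with recruitment of the SRC2-3 coactivator peptide to VDR; plates are read after 2 h at room temperature.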
# On the % scale 0 is the no-effect control and ±100 the full control effect; potency means the concentration at half of the fitted maximal effect.
SMILES,Potency,"max response, negative = inhibition"
O=C(CCN1CCN(c2ccccc2F)CC1)c1ccc(Br)cc1,active: 17.8 µM,
CC1CCc2c(sc(N)c2C(N)=O)C1 (stereo unspecified),"inconclusive: 56.2 µM [inhibitor, partial curve, poor fit]",
Cc1ccc(C)c(N2CCN(S(=O)(=O)c3cc(C(=O)Nc4ccc(Oc5ccccc5)cc4)ccc3F)CC2)c1,,inactive: 16.1%
O=C(c1ccc(Cl)cc1Cl)n1nnc2ccccc21,active: 3.55 µM,
Cc1ccc(NC(=O)CSc2n[nH]c(-c3ccccn3)n2)cc1,,inactive: -21.2%
Cc1cc(=O)oc2c(C)c(OCC(=O)NCC3CCC(C(=O)O)CC3)ccc12 (stereo unspecified),,inactive: -1.47%
O=c1ccc(NS(=O)(=O)c2ccccc2Cl)cn1Cc1ccc(Cl)c(Cl)c1,active: 15.8 µM,
Cc1cc(Cl)c2oc(C(=O)N3CCN(c4cccc(C)n4)CC3)c(C)c2c1,"inconclusive: 89.1 µM [inhibitor, single point]",
CC/C=C\C/C=C\C/C=C\CCCCCCCC(=O)O,active: 25.1 µM and active: 22.4 µM,
CCOC(=O)c1c(NC(=O)COC(=O)CNC(=O)c2ccco2)sc(C)c1C,"inconclusive: 56.2 µM [inhibitor, partial curve, poor fit]",
Cc1ccccc1-c1nc(CN2CCC(C(=O)NCc3ccc(F)cc3)CC2)c(C)o1,,inactive: -13.7%
NS(=O)(=O)c1cccc(NC(=O)CCSc2ccc(Cl)cc2)c1,"inconclusive: 100 µM [inhibitor, single point]",
O=[N+]([O-])c1cc(-c2ncccn2)c([N+](=O)[O-])s1,active: 35.5 µM,
COc1cccc(C(=O)Nc2cccc(-c3ccccc3)c2)c1,"inconclusive: 17.8 µM [inhibitor, partial curve, poor fit]",
CC(Sc1n[nH]c(=O)n1Cc1ccccc1)C(=O)NCC1CCCO1 (stereo unspecified),"inconclusive: 39.8 µM [inhibitor, partial curve, poor fit]",
O=C(Nc1ccccc1Cl)N1CCC(CN2CCCC2)CC1,,inactive: 6.62%
CCN(c1ccccc1)c1nc(C#N)nc(N(CC)c2ccccc2)n1,"inconclusive: 39.8 µM [inhibitor, partial curve, poor fit]",
COc1cc(O)c(C(=O)c2ccccc2)cc1O,"inconclusive: 79.4 µM [inhibitor, partial curve]",
O=[N+]([O-])c1ccc2c(c1)N([O-])C1(CCCCC1)[N+]2=O,"inconclusive: 44.7 µM [inhibitor, partial curve, poor fit]",
Cc1noc(C)c1C(=O)N1CCC2(CCCN(C(c3ccccc3)c3ccccc3)C2)CC1,"inconclusive: 89.1 µM [inhibitor, partial curve, poor fit]",
COc1ccc2oc(C(=O)N3CCN(C(c4ccccc4)c4ccccc4)CC3)c(C)c2c1,,inactive: 4.95%
O=C(NC1CCCC1)C(c1ccccn1)N(C(=O)c1csnn1)C1CC1 (stereo unspecified),,inactive: -13%
Cc1cc(C(=O)CCl)c(C)n1CC1COc2ccccc2O1 (stereo unspecified),active: 89.1 µM,

# For convenience, some entries already given.
SMILES,Potency,"max response, negative = inhibition"
Cc1cc(Cl)c2oc(C(=O)N3CCN(c4cccc(C)n4)CC3)c(C)c2c1,"inconclusive: 89.1 µM [inhibitor, single point]",
CC/C=C\C/C=C\C/C=C\CCCCCCCC(=O)O,active: 25.1 µM and active: 22.4 µM,
CCOC(=O)c1c(NC(=O)COC(=O)CNC(=O)c2ccco2)sc(C)c1C,"inconclusive: 56.2 µM [inhibitor, partial curve, poor fit]",

# (list continues)

SMILES,Potency,"max response, negative = inhibition"
CSc1ccc(COC(=O)c2cc([N+](=O)[O-])ccc2N2CCOCC2)cc1,"inconclusive: 89.1 µM [inhibitor, single point]",
CCOC(=O)c1c(-c2ccco2)csc1NC(=O)COC(=O)c1cnc(C)cn1,,inactive: -1.42%
CCOC(=O)c1sc(=S)n(C)c1NC(=O)c1cccc(Br)c1,"inconclusive: 89.1 µM [inhibitor, single point]",
Cc1ccc(-c2nc3ccccn3c2Nc2ccc(F)cc2)o1,,inactive: -13.1%
COc1ccc(-c2cc3ncc(C(C)=O)c(C)n3n2)cc1,"inconclusive: 100 µM [inhibitor, partial curve, poor fit]",
CN(C)c1ccc(C=c2c3ccccc3n3c2cc(-c2ccccc2)[n+]3C)cc1,,inactive: -15.2%
Cc1ccccc1OCCN1C(=O)C(=O)c2cccc(C)c21,active: 50.1 µM,
CN(Cc1cnn(C)c1)C(=O)C1CCCCC1C(=O)O (stereo unspecified),"inconclusive: 12.6 µM [inhibitor, partial curve, poor fit]",
CCOC(=O)c1c(NC(=O)COC(=O)c2cnc(C)cn2)sc(C(=O)N(C)C)c1C,"inconclusive: 50.1 µM [inhibitor, partial curve]",
O=C(CSc1ccc2c(c1)OCCO2)NCCc1ccc(Cl)cc1Cl,"inconclusive: 100 µM [inhibitor, single point]",
COc1ccc(CNC(=O)c2sc3nc4c(c(C(F)(F)F)c3c2N)CCC4)cc1OC,active: 39.8 µM,
O=C(O)c1ccc(C=NN=C2c3ccccc3-c3ccccc32)cc1,"inconclusive: 89.1 µM [inhibitor, single point]",
O=C(NC(=S)Nc1cc(Cl)ccc1N1CCOCC1)c1ccc(-c2cccc(Cl)c2)o1,,inactive: -11.9%
O=c1n(Cc2ccccc2)nc2n1-c1ccccc1SC2,"inconclusive: 70.8 µM [inhibitor, partial curve, poor fit]",
CC(=O)c1ccc(N=C2C(=O)Nc3ccccc32)cc1,active: 3.98 µM,
O=[N+]([O-])c1cccc(C(=Nc2ccccc2)NO)c1,,inactive: -2.29%
COCCn1nnnc1SCC(=O)c1ccc(F)cc1,"inconclusive: 89.1 µM [inhibitor, single point]",
COc1ccc2cc(C(=O)NCc3ccc4c(c3)CCN4C(=O)c3ccccc3)[nH]c2c1,,inactive: 2.55%
Oc1ccc(Cl)cc1Nc1nc(NCC2CCCO2)c2ccccc2n1 (stereo unspecified),,inactive: 3.66%
O=C1S/C(=C/c2ccc(N3CCOCC3)o2)C(=O)N1Cc1c(F)cccc1Cl,active: 79.4 µM,
O=C(NCc1ccncc1)C(=O)N/N=C/c1ccccc1OCc1ccccc1,"inconclusive: 89.1 µM [inhibitor, single point]",
Cc1ccc2[nH]c(=O)c(CN(CCCO)Cc3nnnn3Cc3ccccc3)cc2c1,"inconclusive: 89.1 µM [inhibitor, partial curve, poor fit]",
COc1cccc(N2[C@@H](CC(C)=O)c3ccc(/C=C/C(C)=O)cc3S2(=O)=O)c1,"inconclusive: 56.2 µM [inhibitor, partial curve, poor fit]",

# From PubChem BioAssay AID504847 (National Center for Advancing Translational Sciences (NCATS), 2011)
